# Results are given in words; binding and its absence hold for the method and conditions named. In cells and extracts the contact can be indirect. Some results given as binding are weak or reduced against the parent protein; the word gives no strength.
# By UniProt entry, the sequences of proteins in these tests, tags left out. Residues count along the entry.
# UniProt P70302, residues 23-685: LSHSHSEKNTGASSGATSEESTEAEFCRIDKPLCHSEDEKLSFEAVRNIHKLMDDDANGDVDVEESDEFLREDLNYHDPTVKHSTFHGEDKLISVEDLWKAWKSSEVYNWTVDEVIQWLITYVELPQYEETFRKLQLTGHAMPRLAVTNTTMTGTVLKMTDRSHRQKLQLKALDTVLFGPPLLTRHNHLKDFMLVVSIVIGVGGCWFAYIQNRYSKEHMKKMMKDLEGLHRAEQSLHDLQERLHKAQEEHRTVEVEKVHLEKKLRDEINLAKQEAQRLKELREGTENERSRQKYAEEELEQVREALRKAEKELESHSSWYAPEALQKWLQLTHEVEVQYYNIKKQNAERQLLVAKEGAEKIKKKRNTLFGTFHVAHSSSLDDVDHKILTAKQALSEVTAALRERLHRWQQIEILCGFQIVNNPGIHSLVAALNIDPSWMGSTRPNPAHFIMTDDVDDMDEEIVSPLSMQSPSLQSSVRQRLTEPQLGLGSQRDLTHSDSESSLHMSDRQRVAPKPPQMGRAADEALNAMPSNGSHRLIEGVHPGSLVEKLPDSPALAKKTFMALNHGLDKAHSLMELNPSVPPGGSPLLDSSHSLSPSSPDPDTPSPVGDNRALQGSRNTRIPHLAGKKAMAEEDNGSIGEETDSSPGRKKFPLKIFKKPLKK
# What was measured:
# [1] = molecular target: STIM1 (endogenous, mouse primary hepatocytes) (mouse (endogenous in primary hepatocytes)) (UniProt P70302); assay: co-IP; anti-STIM1 antibody cross-linked to protein-A magnetic beads with DMP; lysates of primary hepatocytes from WT and Lep^ob/ob mice in IP lysis buffer (50 mM Tris-HCl pH 7.4, 1 mM EDTA, 150 mM NaCl, 10 mM Na3VO4, 1% NP-40, protease inhibitors, 10 µM PugNac); 300-400 µg protein, overnight; 3 washes; immunoblot for OGT
# 3xFLAG-mSTIM1 (mouse) = 3xFLAG-mSTIM1 (mouse) (UniProt P70302); assay: co-IP; lysates of cells stably expressing STIM1-Flag with or without OGT overexpression incubated with anti-flag M2 magnetic beads, eluted by competition with 3x flag peptide; immunoblot for O-GlcNAc and OGT
binding [1],binding (3xFLAG-mSTIM1 (mouse)),Binder
binds,–,"OGT (endogenous, mouse primary hepatocytes) (enzyme, UniProt Q8CGY8 1-1046) MASSVGNVADSTEPTKRMLSFQGLAELAHREYQAGDFEAAERHCMQLWRQEPDNTGVLLLLSSIHFQCRRLDRSAHFSTLAIKQNPLLAEAYSNLGNVYKERGQLQEAIEHYRHALRLKPDFIDGYINLAAALVAAGDMEGAVQAYVSALQYNPDLYCVRSDLGNLLKALGRLEEAKACYLKAIETQPNFAVAWSNLGCVFNAQGEIWLAIHHFEKAVTLDPNFLDAYINLGNVLKEARIFDRAVAAYLRALSLSPNHAVVHGNLACVYYEQGLIDLAIDTYRRAIELQPHFPDAYCNLANALKEKGSVAEAEDCYNTALRLCPTHADSLNNLANIKREQGNIEEAVRLYRKALEVFPEFAAAHSNLASVLQQQGKLQEALMHYKEAIRISPTFADAYSNMGNTLKEMQDVQGALQCYTRAIQINPAFADAHSNLASIHKDSGNIPEAIASYRTALKLKPDFPDAYCNLAHCLQIVCDWTDYDERMKKLVSIVAEQLEKNRLPSVHPHHSMLYPLSHGFRKAIAERHGNLCLDKINVLHKPPYEHPKDLKLSDGRLRVGYVSSDFGNHPTSHLMQSIPGMHNPDKFEVFCYALSPDDGTNFRVKVMAEANHFIDLSQIPCNGKAADRIHQDGIHILVNMNGYTKGARNELFALRPAPIQAMWLGYPGTSGALFMDYIITDQETSPAEVAEQYSEKLAYMPHTFFIGDHANMFPHLKKKAVIDFKSNGHIYDNRIVLNGIDLKAFLDSLPDVKIVKMKCPDGGDNPDSSNTALNMPVIPMNTIAEAVIEMINRGQIQITINGFSISNGLATTQINNKAATGEEVPRTIIVTTRSQYGLPEDAIVYCNFNQLYKIDPSTLQMWANILKRVPNSVLWLLRFPAVGEPNIQQYAQNMGLPQNRIIFSPVAPKEEHVRRGQLADVCLDTPLCNGHTTGMDVLWAGTPMVTMPGETLASRVAASQLTCLGCLELIAKSRQEYEDIAVKLGTDLEYLKKIRGKVWKQRISSPLFNTKQYTMELERLYLQMWEHYAAGNKPDHMIKPVEVTESA"
–,binds,"hOGT (overexpressed from the hOGT/RFP co-expression plasmid with a self-cleaving P2A linker) (enzyme, UniProt O15294 1-1046) MASSVGNVADSTEPTKRMLSFQGLAELAHREYQAGDFEAAERHCMQLWRQEPDNTGVLLLLSSIHFQCRRLDRSAHFSTLAIKQNPLLAEAYSNLGNVYKERGQLQEAIEHYRHALRLKPDFIDGYINLAAALVAAGDMEGAVQAYVSALQYNPDLYCVRSDLGNLLKALGRLEEAKACYLKAIETQPNFAVAWSNLGCVFNAQGEIWLAIHHFEKAVTLDPNFLDAYINLGNVLKEARIFDRAVAAYLRALSLSPNHAVVHGNLACVYYEQGLIDLAIDTYRRAIELQPHFPDAYCNLANALKEKGSVAEAEDCYNTALRLCPTHADSLNNLANIKREQGNIEEAVRLYRKALEVFPEFAAAHSNLASVLQQQGKLQEALMHYKEAIRISPTFADAYSNMGNTLKEMQDVQGALQCYTRAIQINPAFADAHSNLASIHKDSGNIPEAIASYRTALKLKPDFPDAYCNLAHCLQIVCDWTDYDERMKKLVSIVADQLEKNRLPSVHPHHSMLYPLSHGFRKAIAERHGNLCLDKINVLHKPPYEHPKDLKLSDGRLRVGYVSSDFGNHPTSHLMQSIPGMHNPDKFEVFCYALSPDDGTNFRVKVMAEANHFIDLSQIPCNGKAADRIHQDGIHILVNMNGYTKGARNELFALRPAPIQAMWLGYPGTSGALFMDYIITDQETSPAEVAEQYSEKLAYMPHTFFIGDHANMFPHLKKKAVIDFKSNGHIYDNRIVLNGIDLKAFLDSLPDVKIVKMKCPDGGDNADSSNTALNMPVIPMNTIAEAVIEMINRGQIQITINGFSISNGLATTQINNKAATGEEVPRTIIVTTRSQYGLPEDAIVYCNFNQLYKIDPSTLQMWANILKRVPNSVLWLLRFPAVGEPNIQQYAQNMGLPQNRIIFSPVAPKEEHVRRGQLADVCLDTPLCNGHTTGMDVLWAGTPMVTMPGETLASRVAASQLTCLGCLELIAKNRQEYEDIAVKLGTDLEYLKKVRGKVWKQRISSPLFNTKQYTMELERLYLQMWEHYAAGNKPDHMIKPVEVTESA"
